# According to PubChem BioAssay AID1347423 (Functional Genomics Laboratory (NCATS/FGL), 2020):
# Hit rate of the full screen: of about 52,000 sequences, about 210 (0.4%) were called active.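 Rule for the calls: active = gene whose silencing raises cell survival under the drug, median off-target-corrected z-score across its silencing RNAs 2 or more; inactive = the rest.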 This is one part of the list.
# Test: Resistance to Poly (ADP-Ribose) Polymerase inhibitor: Gene Identification via Genome-wide siRNA Screen
# Conditions: mouse BRCA2 R2336H ES cells, olaparib, CellTiter-Glo viability; stronger effect = higher value
# Procedure, shortened: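 Mouse BRCA2 R2336H ES cells were reverse-transfected with siRNA (20 nM final), treated at 48 h with 500 nM olaparib, and read by CellTiter-Glo after 72 h. Scores: MAD-based z per siRNA, median per gene, seed off-target correction.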
row,Sequence,z-score
1,GCUUUUAGGGAUUAUUCAGTT against Zfp606,inactive: -0.812
2,CCCAUCGAUCCAUCACAUUTT against Olfr63,inactive: 0.257
3,GGUAGUCACUAUCCUGAUUTT against Olfr1086,inactive: -0.188
4,CCUGAUAGUCUUGAAGAUGTT against Orm2,inactive: 0.102
5,GGCUCGAGAGAAGAAGUACTT against Gjb5,inactive: 1.43
6,CCCUAAAGAGUGGGAUGUATT against Pi15,inactive: -0.335
7,GCUUUUCAGUAACUGUCAGTT against Ccrl2,inactive: -0.38
8,GGCCUGCUAUAUGCAUUCCTT against Krtap12-1,inactive: 1.1
9,GGCUUAUCAGUCCAUGAAGTT against BC022224,inactive: 1.93
10,GGACAAUGAGCUUGAAUACTT against Ccne1,inactive: 2.81
11,GGUGCCAAUCCUUUGGACATT against 4930590J08Rik,inactive: -0.641
12,GGGAAAACUUGGAUAUUCUTT against AW146242,inactive: -0.747
13,GCUGACCCAGCUAUGUACUTT against 4930519N13Rik,inactive: -0.26
14,GGAUUGCAUUAGGAAAGAATT against Fancl,inactive: 0.12
15,GCUUUGCAAUUCACAGGGATT against Abpa,inactive: 0.746
16,GGACACACUCUACUUCCCATT against Mrgprg,inactive: 0.474
17,GGAGUGCAACAAGAAGUUCTT against Klf13,inactive: 0.175
18,GGAACUUGAUCAAGAAAAUTT against Matr3,inactive: 0.635
19,GGUUAUGUGUUCCAUAGAUTT against Pcdhb13,inactive: 1.82
20,GGAGAAAAUUUUCACCACUTT against Slc25a24,inactive: 0.944
21,GGUUCUGACCCUUGGUUAUTT against V1rh14,inactive: 0.0393
22,GCAAUGGAACCACCUCUGATT against Zic5,inactive: 1
23,GCUGAACAUUAGCUUCAAUTT against 4921529O18Rik,inactive: 0.269
24,GGCGUGUCUUGAUAGAAAUTT against Mtl5,inactive: -0.176
25,GGAUAAUGUUGUCUGUCUATT against C87860,inactive: -1.24
26,GCGACACAUUCGAUCUCAGTT against Evi1,inactive: 0.291

row,Sequence,z-score
1,CCACAUGUCCAAUCAGAAUTT against Eef2k,inactive: 0.207
2,GGUUGUCUUUCUACUCGGGTT against Ppap2a,inactive: -0.759
3,CCUAGGUGUCGUACACAAATT against Galns,inactive: -0.335
4,UAAAUGAGCUCGUAAUCUUTT against Olfr874,inactive: 1.03
5,GGAGGUAGAGAUGUCCACCTT against Serpinb6b,inactive: -0.783
6,GUACUACAUGGAUCUCAAGTT against Pura,inactive: 1.31
7,CGUUAGCAGGCAACAAAUCTT against Cyp2d13,inactive: -2.18
8,GGAACAGUUCCUUGUGGUUTT against Uqcrh,inactive: -0.125
9,GCACUUCUCAGUCUAUAACTT against Gm773,inactive: -0.386
10,CCGAUUCGUUGGUAUUAACTT against Zadh2,inactive: -0.633
11,CGUACCACACGAUGAAUAGTT against Pou4f1,inactive: -0.913
12,GCAGUUCUGAAUCAUUAAGTT against Pot1,inactive: 1.08
13,CGAAGAUUACCUUUCAAGATT against Siat7c,inactive: 0.328
14,CCCAGUGUACUUGUCAUUUTT against Rhob,inactive: 0.0878
15,GCCUUGAACUAUGCAUAGATT against Eno2,inactive: -1.39
16,CCUCUUAGCUAGAUCUUACTT against Smu1,inactive: -2.99
17,GCCAGUGUGUAUCAAAAAATT against 1110011K10Rik,inactive: 0.869
18,GGGCUACGAUGUGGAGUUUTT against Traf6,inactive: 0.723
19,GCAGCUACUGUGUUACAAATT against AI173486,inactive: 1.04
20,CCGAGACAUAAAUUUUCCATT against C330003B14Rik,inactive: 1.25
21,GCUCCACUGAUACUGUUGUTT against Cyp4a10,inactive: 0.424
22,CCCAAUAAUGAGAAGCGGCTT against Sh2d1c,inactive: 0.997
23,GGAAAGUUCCAAGUUACCATT against C530009C10Rik,inactive: -0.495
24,GUGAUAAACCUGGGACACATT against Lyl1,inactive: -0.88
25,GGACCUUCUUCUGUCCCUUTT against C130022P09Rik,inactive: -2.07
26,GGUGUGUUAAGGUUUUUAATT against 2900024D24Rik,inactive: 0.679

row,Sequence,z-score
1,CCUCUAAAUAGAGGAUAAGTT against Zfp467,inactive: 1.19
2,GCCUCUCGUGAAGAACAUATT against Cdkl1,inactive: -0.131
3,CCAAAAACUGGGAGUUCGUTT against Olfr513,inactive: 0.713
4,GGCUAUUUAUUGCAUUCUCTT against 4933416E05Rik,inactive: -0.152
5,GGGAAGGACCUCAUUCAACTT against Butr1,inactive: 0.11
6,GGACAUUUCCUCGCUUGACTT against L3mbtl2,inactive: -1.16
7,GGACGUACAUGAUGAUGUUTT against A930008A22Rik,inactive: -2.54
8,CAGGCUGGUUACUUUGGCUTT against Tmhs,inactive: -2.19
9,GGUGGUUUUUUGUUGUUGUTT against B230384L07,inactive: -0.53
10,GGAGCUGUACGGCAAGAUCTT against Rgs19ip1,inactive: -1.08
11,GGAGUUUCUCAGUGAAGGATT against Traf4,inactive: -2.22
12,CGUGAAGAUUCUUAAGGCGTT against Ppil1,inactive: 1.52
13,GGUGUAUUAAAAUGUCAGUTT against Marveld2,inactive: 1.48
14,GGCUUUACUUCUUGCUGUGTT against Olfr1412,inactive: -1.06
15,GGAAUAUAUCUCCAAACAGTT against 1700008F21Rik,inactive: -0.104
16,GCUACAAACAACAAGUGACTT against 2210408I21Rik,inactive: -0.564
17,CCAAGAAAAGUCCAGAAGCTT against Rorb,inactive: 0.68
18,GGACAUCAUCCAGGAAAACTT against Bcar3,inactive: -1.98
19,GGGCAAAAGUUUAGAAAUCTT against AI467503,inactive: 0.482
20,GCUUCUGAUUGAGAGUUCATT against D830044D21Rik,inactive: 0.542
21,GGAUAUCAUGGACACUCAUTT against Apg16l,inactive: -2.53
22,GGUGCUGACUGCUUUUGGATT against Hbb-y,inactive: -0.265
23,GGAAUCAUCUUUGUGGAGATT against 0610006K04Rik,inactive: 0.623
24,GCCCUAUCUACCAUAACACTT against Dok3,inactive: -1.43
25,GGAAGAAAAGGCUUCUCUUTT against Ube3c,inactive: -0.853
26,GCUGUGAUCAGGACGAGAATT against Epim,inactive: -0.712

row,Sequence,z-score
1,CCUAUUAUACUGAUCUCGGTT against LOC432436,inactive: 0.947
2,GCCAAAUCAUGGGUCUGGUTT against Npas3,inactive: 0.238
3,GGAAAAAUGACUGAUCUCUTT against Unc5c,inactive: -0.149
4,GGCAUUCGAAGGGUCUACATT against Kcna7,inactive: -2.93
5,GGUUAUCCCAACUACCAGCTT against Timm17b,inactive: 0.448
6,GGGCCUUAAAUUCCUAACCTT against 9530002K18Rik,inactive: 0.892
7,GGCUCCUAAAAAGUUUGCATT against 5330401P04Rik,inactive: -0.356
8,GCUUCAGAAGCUUAAUAGCTT against Cited1,inactive: 0.867
9,GGCUUAGAGAAACUCUAGATT against Btbd14b,inactive: -0.27
10,GGGACCAGAUCAAGACACUTT against Apxl,inactive: 0.899
11,GCUCAAAUGUUCUAAAAGCTT against Acmsd,inactive: 0.495
12,GGACAGUUGACCUAGCAUATT against 9330155M09Rik,inactive: 0.421
13,GCUAGACCGAAGAAUCCUGTT against Spatc1,inactive: -0.0515
14,GCAAGCAAGGAAAAAGCUATT against Glis3,inactive: -0.53
15,GGACUACGCCGACUUUGUCTT against Cog2,inactive: 1.34
16,GACUGCUGUUUAGGAAUCGTT against Trip3,inactive: 0.166
17,GGUGGUCCAGACCAAGUACTT against Pfdn5,inactive: -1.39
18,CCAAGCGAAUGCUGGACAUTT against Cox4i1,inactive: -0.312
19,GCUACAAGUACUGGUUUCUTT against Pcnxl3,inactive: -0.326
20,GCAAAUGAUACAGUGGAUUTT against Catns,inactive: 1.35
21,GGCAUUCCCAGUCGUAAAGTT against Kctd3,inactive: 0.758
22,GGAGCCGACUUCUUAUUCGTT against Mastl,inactive: 0.572
23,GGUACUAAGCACAAGACAATT against Zfp385,inactive: 0.16
24,CCUUCUACCUACUUAUUGGTT against Tomm70a,inactive: 1.18
25,GGAUGGUGAUUUGUUUCCUTT against Morf4l2,inactive: 0.157
26,GGACAGCUACAGGAAAAUGTT against Tjp1,inactive: -0.488

# Part of the list above, set out differently.
row | Sequence | z-score
11 | GCUCAAAUGUUCUAAAAGCTT against Acmsd | inactive: 0.495
12 | GGACAGUUGACCUAGCAUATT against 9330155M09Rik | inactive: 0.421
13 | GCUAGACCGAAGAAUCCUGTT against Spatc1 | inactive: -0.0515
14 | GCAAGCAAGGAAAAAGCUATT against Glis3 | inactive: -0.53
15 | GGACUACGCCGACUUUGUCTT against Cog2 | inactive: 1.34
